Measurements as given in publication PMC12152122.
Results are given in words; binding and its absence hold for the method and conditions named. Binding seen in cells or lysates may run through a third protein. Here binding means that the protein was enriched with, or labelled near, the bait; the list need not be complete.

Chains of the proteins cited; added tags and fusions are not shown.
UniProt Q9Y266: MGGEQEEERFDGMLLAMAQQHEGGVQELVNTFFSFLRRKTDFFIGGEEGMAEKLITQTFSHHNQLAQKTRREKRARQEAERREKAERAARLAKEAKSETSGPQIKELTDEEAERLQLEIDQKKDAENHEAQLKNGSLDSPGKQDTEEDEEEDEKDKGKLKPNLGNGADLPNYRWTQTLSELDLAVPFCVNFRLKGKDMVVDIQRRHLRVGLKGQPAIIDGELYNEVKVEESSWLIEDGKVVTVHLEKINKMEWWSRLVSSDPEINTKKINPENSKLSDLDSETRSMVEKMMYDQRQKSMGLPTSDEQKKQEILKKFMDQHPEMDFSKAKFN

Target: T1, RNF41 (bait of the immunoaffinity purification for mass spectrometry, T24 cells) (UniProt Q9H4P4)
T1 sequence: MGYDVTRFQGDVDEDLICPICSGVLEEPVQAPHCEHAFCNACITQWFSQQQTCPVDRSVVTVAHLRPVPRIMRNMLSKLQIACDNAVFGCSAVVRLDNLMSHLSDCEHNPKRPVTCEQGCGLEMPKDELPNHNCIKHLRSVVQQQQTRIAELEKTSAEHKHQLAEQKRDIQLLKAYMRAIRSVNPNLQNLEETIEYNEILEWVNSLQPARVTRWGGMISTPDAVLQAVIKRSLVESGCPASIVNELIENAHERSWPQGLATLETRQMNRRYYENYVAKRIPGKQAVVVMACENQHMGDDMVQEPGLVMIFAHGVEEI
Test: affinity purification with mass spectrometry; immunoaffinity purification of RNF41 from T24 cells, silver staining, mass spectrometry

binding: binds
Substance: Nuclear distribution protein C (NUDC) (endogenous, T24 cells) (from UniProt Q9Y266 1-331)
